Results: US20130252983A1, “ACTIVATING PHOSPHORYLATION SITE ON GLUTAMINASE C” (CORNELL UNIVERSITY, priority 2010, published 2013)
For at least one compound, name, drawing or mass did not settle the structure.

Target: T1, GA activity of NIH 3T3 cells stably expressing Dbl or Cdc42(F28L) (Mus musculus, UniProt D3Z7P3)
T1 construct: endogenous in cells; host or cells: NIH 3T3 cells stably expressing Dbl or Cdc42(F28L); mitochondrial fraction
T1 sequence (D3Z7P3 55-603 isoform D3Z7P3-2): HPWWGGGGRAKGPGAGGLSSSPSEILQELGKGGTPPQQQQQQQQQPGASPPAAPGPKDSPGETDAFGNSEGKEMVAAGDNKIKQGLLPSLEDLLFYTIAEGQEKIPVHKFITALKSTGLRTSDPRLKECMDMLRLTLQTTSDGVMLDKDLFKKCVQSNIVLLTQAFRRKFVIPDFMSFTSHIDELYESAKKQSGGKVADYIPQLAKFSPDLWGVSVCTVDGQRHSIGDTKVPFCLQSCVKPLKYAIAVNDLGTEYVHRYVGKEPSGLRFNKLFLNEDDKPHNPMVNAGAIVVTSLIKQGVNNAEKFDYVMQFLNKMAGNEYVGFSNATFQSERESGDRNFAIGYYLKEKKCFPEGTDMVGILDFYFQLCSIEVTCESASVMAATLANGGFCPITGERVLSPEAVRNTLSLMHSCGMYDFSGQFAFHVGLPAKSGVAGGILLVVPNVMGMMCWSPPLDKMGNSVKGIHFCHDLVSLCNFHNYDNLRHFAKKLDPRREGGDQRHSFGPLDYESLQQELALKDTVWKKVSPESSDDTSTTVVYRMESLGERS
Experiment: GA activity in mitochondrial fractions of treated transformed NIH 3T3 cells
Type: cell-based
Settings: Dbl expressing NIH 3T3 cells, 48 hours; Bay 11-7082 (2 μM), Rapamycin (100 nM)
Protocol: 100%=620 moles of glutamine hydrolyzed per minute per mole of enzyme. Data represent the average of 3 experiments (±s.d.). […] Following precipitation of the beads and re-suspension, the samples were analyzed by Western blotting with anti-V5 antibody. […] Data represent the average of 3 experiments (±s.d.). […] Data represent the average of 3 experiments (±s.d.). […] Data represent the average of 3 experiments (±s.d.). FIG. 3E NIH 3T3 cells transiently expressing Dbl were assayed for focus formation in the presence of 10 μM 968 alone or together with 7 mM dimethyl α-ketoglutarate. […] 100%=680 nM glutamine hydrolyzed per minute per 10^5 cells. Data are the average of 3 experiments (±s.d.). […] 100%=750 nM glutamine hydrolyzed per minute per 10^5 cells. […]
FIGS. 4A-E illustrate the role of glutaminase C activity in cellular transformation. […] 100% represents the activity measured in untreated Dbl-transformed cells. […] 100% represents the activity measured in untreated SKBR3 cells. […]
FIGS. 11A-E illustrate the effects of different treatments on GA activity. […] 100% represents the Pi-stimulated activity measured for Dbl-transformed cells that were not treated with 968. […] The data are plotted as the percentage of GA activity measured for untreated SKBR3 cells and represent the average of 2 experiments. […] 100% represents the Pi-stimulated activity measured for untreated Dbl-transformed cells. […]

CO[C@H]1C[C@@H]2CC[C@@H](C)[C@@](O)(O2)C(=O)C(=O)N2CCCC[C@H]2C(=O)O[C@H]([C@H](C)C[C@@H]2CC[C@@H](O)[C@H](OC)C2)CC(=O)[C@H](C)/C=C(\C)[C@@H](O)[C@@H](OC)C(=O)[C@H](C)C[C@H](C)/C=C/C=C/C=C/1C [rapamycin]
mitochondrial glutaminase activity: significant loss of glutaminase activity
